Experimental data from PMC5285507.
No constants are given. Whether binding was seen depends on the method and setting. In cells and extracts the contact can be indirect. A result given as binding can be weak or reduced; the word gives no strength.

By UniProt entry, the sequences of proteins in these tests, tags left out. Where a name states a change or a piece, a line headed by the entry shows the natural chain unless it says otherwise.
UniProt Q57WL3: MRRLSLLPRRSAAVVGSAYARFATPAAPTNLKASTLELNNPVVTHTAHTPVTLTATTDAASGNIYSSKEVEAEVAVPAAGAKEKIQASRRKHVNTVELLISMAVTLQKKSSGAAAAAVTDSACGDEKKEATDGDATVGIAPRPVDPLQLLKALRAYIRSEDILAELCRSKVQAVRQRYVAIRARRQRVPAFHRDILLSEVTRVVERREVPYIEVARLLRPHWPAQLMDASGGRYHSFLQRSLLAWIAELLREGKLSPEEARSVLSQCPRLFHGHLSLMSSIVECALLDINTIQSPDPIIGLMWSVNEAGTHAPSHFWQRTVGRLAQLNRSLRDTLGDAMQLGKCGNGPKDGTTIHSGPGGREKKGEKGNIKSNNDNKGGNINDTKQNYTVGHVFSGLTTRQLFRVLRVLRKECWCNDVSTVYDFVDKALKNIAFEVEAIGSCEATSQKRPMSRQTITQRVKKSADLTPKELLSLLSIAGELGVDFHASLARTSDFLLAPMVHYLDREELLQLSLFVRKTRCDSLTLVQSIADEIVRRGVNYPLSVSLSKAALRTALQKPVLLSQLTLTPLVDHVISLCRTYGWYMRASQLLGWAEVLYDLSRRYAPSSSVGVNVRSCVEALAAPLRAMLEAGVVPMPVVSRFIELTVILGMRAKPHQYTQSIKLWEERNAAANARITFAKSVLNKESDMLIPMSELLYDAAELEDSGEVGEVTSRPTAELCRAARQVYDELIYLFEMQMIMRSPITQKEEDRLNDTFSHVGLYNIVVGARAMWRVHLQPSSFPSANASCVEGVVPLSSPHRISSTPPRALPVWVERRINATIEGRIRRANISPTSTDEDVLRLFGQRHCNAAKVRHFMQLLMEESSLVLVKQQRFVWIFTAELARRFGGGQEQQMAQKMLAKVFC
UniProt Q584T3: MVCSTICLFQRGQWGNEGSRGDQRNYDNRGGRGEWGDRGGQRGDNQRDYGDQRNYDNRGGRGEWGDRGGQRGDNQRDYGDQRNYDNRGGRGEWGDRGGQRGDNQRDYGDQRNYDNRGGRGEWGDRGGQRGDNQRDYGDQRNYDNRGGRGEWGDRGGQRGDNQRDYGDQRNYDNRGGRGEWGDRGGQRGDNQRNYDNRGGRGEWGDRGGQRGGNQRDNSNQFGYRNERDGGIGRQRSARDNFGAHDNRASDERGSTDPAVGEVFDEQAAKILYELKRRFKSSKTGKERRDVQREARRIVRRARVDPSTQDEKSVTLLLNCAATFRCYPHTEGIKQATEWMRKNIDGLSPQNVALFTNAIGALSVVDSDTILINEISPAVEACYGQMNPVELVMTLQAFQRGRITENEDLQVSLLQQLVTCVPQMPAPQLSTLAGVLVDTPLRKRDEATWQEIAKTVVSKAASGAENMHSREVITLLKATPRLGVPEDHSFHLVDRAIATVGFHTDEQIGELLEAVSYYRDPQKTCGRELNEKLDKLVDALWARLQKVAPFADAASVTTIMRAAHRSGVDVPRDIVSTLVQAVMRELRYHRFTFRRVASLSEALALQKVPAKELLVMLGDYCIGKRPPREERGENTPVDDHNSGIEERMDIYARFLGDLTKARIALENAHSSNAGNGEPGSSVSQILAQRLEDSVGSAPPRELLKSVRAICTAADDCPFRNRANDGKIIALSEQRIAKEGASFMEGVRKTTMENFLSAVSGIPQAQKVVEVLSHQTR
UniProt Q586X1: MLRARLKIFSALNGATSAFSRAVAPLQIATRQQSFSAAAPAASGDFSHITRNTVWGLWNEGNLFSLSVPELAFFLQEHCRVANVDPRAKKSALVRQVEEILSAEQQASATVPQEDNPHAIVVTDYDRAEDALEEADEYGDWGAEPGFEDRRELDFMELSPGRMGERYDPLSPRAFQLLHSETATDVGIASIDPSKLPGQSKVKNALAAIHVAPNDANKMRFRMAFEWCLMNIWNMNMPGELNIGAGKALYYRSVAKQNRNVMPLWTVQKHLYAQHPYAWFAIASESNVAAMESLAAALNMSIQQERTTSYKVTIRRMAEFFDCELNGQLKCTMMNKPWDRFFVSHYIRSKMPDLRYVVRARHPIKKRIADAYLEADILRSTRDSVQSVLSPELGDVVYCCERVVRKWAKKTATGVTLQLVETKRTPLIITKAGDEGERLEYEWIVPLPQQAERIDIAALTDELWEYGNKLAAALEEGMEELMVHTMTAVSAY
UniProt P90629: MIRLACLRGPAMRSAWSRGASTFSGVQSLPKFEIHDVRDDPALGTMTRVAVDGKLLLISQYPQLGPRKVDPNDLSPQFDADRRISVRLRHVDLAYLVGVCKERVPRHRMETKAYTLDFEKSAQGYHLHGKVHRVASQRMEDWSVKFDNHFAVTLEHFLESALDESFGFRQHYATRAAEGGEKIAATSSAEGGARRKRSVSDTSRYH
UniProt Q389P7: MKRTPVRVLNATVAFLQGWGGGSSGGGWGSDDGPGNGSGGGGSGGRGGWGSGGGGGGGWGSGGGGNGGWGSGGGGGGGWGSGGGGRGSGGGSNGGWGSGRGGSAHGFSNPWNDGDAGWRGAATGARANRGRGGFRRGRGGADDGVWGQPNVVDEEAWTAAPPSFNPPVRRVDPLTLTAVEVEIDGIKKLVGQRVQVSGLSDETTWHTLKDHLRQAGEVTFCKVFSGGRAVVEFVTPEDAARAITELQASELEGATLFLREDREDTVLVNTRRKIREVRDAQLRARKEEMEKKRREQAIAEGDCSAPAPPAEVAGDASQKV

Columns and labels:
[1] = biological target: MRB4160 tagged with modified TAP tag (mTAP) (T. brucei) (UniProt Q57Y20); experiment: co-IP; rapid tandem affinity purification: RNase I-digested supernatants of T. brucei with mTAP-tagged MRB8170 or MRB4160 mixed with IgG-coated magnetic Dynabeads; eluates probed by Western blot with specific antibodies; mock purification of the parental cell line as control
[2] = biological target: MRB8170 tagged with modified TAP tag (mTAP) (T. brucei) (UniProt Q57WL3); experiment: as above

Substance	binding [1]	binding [2]
TbRGG1 (from UniProt Q584T3)	binds	binds
gRNA-associated protein 1 (GAP1) (from UniProt Q586X1)	binds	binds
mtRNA-binding protein 1 (MRP1) (from UniProt P90629)	binds	binds
T. brucei RGG2 (TbRGG2) (from UniProt Q389P7)	binds	binds
